Experimental data published in PubChem BioAssay (NCATS).
Inconclusive results, whose numbers are uncertain, are shown with a selection of clear calls. For part of these data: A potency beside an inconclusive call is a rough fit, not a confirmed value. The source made the active and inactive calls. Calls follow the shape of the dose curve; as a rule, active = well fitted curve in the direction sought with a large enough effect; inconclusive = small, poorly fitted or top-dose-only effect, or another doubt; inactive = no such curve, though single readings can be large; an effect the other way counts as inactive or inconclusive.

Columns and labels:
[1] = Quantitative High-Throughput drug screen in 47 multiple myeloma cell lines against the NCATS MIPE library collection: Karpas417_ECACC cell viability assay (AID 1918961); settings: Karpas417 myeloma viability, CellTiter-Glo ATP luminescence, 48 h; viability (% of DMSO): at 45.8 µM (top of the series); also: potency is read from the fitted curve at half-maximal effect
How it was run: (§1)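 CellTiter-Glo ATP luminescence gave viability after 48 h compound treatment at 37C of 500 multiple myeloma cells per well. Normalisation used DMSO-only wells as 100% and media-only wells as 0% viability; primary qHTS of approved and investigational drugs.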

[2] = Quantitative High-Throughput drug screen in 47 multiple myeloma cell lines against the NCATS MIPE library collection: KHM11_PLB cell viability assay (AID 1918962); settings: KHM11 myeloma cell viability, CellTiter-Glo ATP luminescence, 48 h; viability, % of DMSO control: at 45.8 µM (top of the series); also: nearly all actives have a fitted effect of over 35% in size; also: potency is read from the fitted curve at half-maximal effect
How it was run: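 Myeloma cells (500 per well) were exposed to MIPE 4.0 compounds by pin transfer and incubated 48 hours at 37C, 5% CO2. Viability was read as ATP by CellTiter-Glo luminescence, normalised to DMSO (100%) and media-only (0%) wells.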

[3] = Quantitative High-Throughput drug screen in 47 multiple myeloma cell lines against the NCATS MIPE library collection: JIM1_ECACC cell viability assay (AID 1918964; also: potency is read from the fitted curve at half-maximal effect); settings: JIM1 myeloma viability, CellTiter-Glo ATP luminescence, 48 h; viability (% of DMSO): at 45.8 µM (top of the series)
How it was run: (§2)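 Primary qHTS used for cherry-picking: cells at 500/well, library compounds for 48 h (37C, 5% CO2), luminescent ATP assay.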

[4] = Quantitative High-Throughput drug screen in 47 multiple myeloma cell lines against the NCATS MIPE library collection: JJN3_DSMZ cell viability assay (AID 1918966; also: nearly all actives have a fitted effect of over 50% in size; also: potency is read from the fitted curve at half-maximal effect)
How it was run: as §2

[5] = Quantitative High-Throughput drug screen in 47 multiple myeloma cell lines against the NCATS MIPE library collection: H1112_PLB cell viability assay (AID 1918967; also: nearly all actives have a fitted effect of over 30% in size; also: potency is read from the fitted curve at half-maximal effect)
How it was run: as §2

[6] = Quantitative High-Throughput drug screen in 47 multiple myeloma cell lines against the NCATS MIPE library collection: Karpas25_ECACC cell viability assay (AID 1918968; also: nearly all actives have a fitted effect of over 35% in size; also: potency is read from the fitted curve at half-maximal effect)
How it was run: as §2

[7] = Quantitative High-Throughput drug screen in 47 multiple myeloma cell lines against the NCATS MIPE library collection: KMS20_JCRB cell viability assay (AID 1918973); settings: CellTiter-Glo ATP, 48 h; viability (% of DMSO): at 45.8 µM (top of the series); also: nearly all actives have a fitted effect of over 45% in size; also: potency is read from the fitted curve at half-maximal effect
How it was run: as §2

[8] = Quantitative High-Throughput drug screen in 47 multiple myeloma cell lines against the NCATS MIPE library collection: KMS21BM_JCRB cell viability assay (AID 1918974); settings: ATP luminescence, 48 h; viability: at 45.8 µM (top of the series); also: potency is read from the fitted curve at half-maximal effect
How it was run: as §2

[9] = Quantitative High-Throughput drug screen in 47 multiple myeloma cell lines against the NCATS MIPE library collection: MMM1_PLB cell viability assay (AID 1918976); also: nearly all actives have a fitted effect of over 35% in size; also: potency is read from the fitted curve at half-maximal effect
How it was run: (§3)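 ATP-based CellTiter-Glo luminescence after 48 h drug exposure (37 °C, 5% CO2) of 500 myeloma cells per well. DMSO-only wells set 100% viability, media-only wells 0%; MIPE 4.0 library added by pin tool.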

[10] = Quantitative High-Throughput drug screen in 47 multiple myeloma cell lines against the NCATS MIPE library collection: MOLP8_DSMZ cell viability assay (AID 1918977); also: nearly all actives have a fitted effect of over 45% in size; also: potency is read from the fitted curve at half-maximal effect
How it was run: as §3

[11] = Quantitative High-Throughput drug screen in 47 multiple myeloma cell lines against the NCATS MIPE library collection: OCIMY1_PLB cell viability assay (AID 1918979); also: nearly all actives have a fitted effect of over 35% in size; also: potency is read from the fitted curve at half-maximal effect
How it was run: as §3

[12] = Quantitative High-Throughput drug screen in 47 multiple myeloma cell lines against the NCATS MIPE library collection: INA6_PLB cell viability assay (AID 1918965; also: nearly all actives have a fitted effect of over 55% in size; also: potency is read from the fitted curve at half-maximal effect); settings: INA6 myeloma viability, CellTiter-Glo ATP luminescence, 48 h; viability (% of control): at 45.8 µM (top of the series)
How it was run: as §1

[13] = Quantitative High-Throughput drug screen in 47 multiple myeloma cell lines against the NCATS MIPE library collection: KMS27_JCRB cell viability assay (AID 1918970); settings: KMS27 myeloma cells, CellTiter-Glo ATP viability, 48 h; viability (% of DMSO): at 45.8 µM (top of the series); also: nearly all actives have a fitted effect of over 30% in size; also: potency is read from the fitted curve at half-maximal effect
How it was run: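 Myeloma cells (500 per well) were exposed to MIPE 4.0 compounds for 48 h at 37 °C, 5% CO2; viability was read as ATP luminescence with CellTiter-Glo, normalized to DMSO-only (100%) and media-only (0%) wells.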

[14] = Quantitative High-Throughput drug screen in 47 multiple myeloma cell lines against the NCATS MIPE library collection: KMS12BM_JCRB cell viability assay (AID 1918971); also: nearly all actives have a fitted effect of over 35% in size; also: potency is read from the fitted curve at half-maximal effect
How it was run: (§4)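 Myeloma cell lines, 500 cells per well, exposed to MIPE 4.0 library compounds for 48 h at 37C, 5% CO2. Viability from ATP by CellTiter-Glo luminescence; normalised to DMSO (100%) and media-only (0%) wells.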

[15] = Quantitative High-Throughput drug screen in 47 multiple myeloma cell lines against the NCATS MIPE library collection: KMS26_JCRB cell viability assay (AID 1918975); settings: KMS26 myeloma cells viability, CellTiter-Glo ATP, 48 h; viability (% of DMSO): at 45.8 µM (top of the series); also: nearly all actives have a fitted effect of over 45% in size; also: potency is read from the fitted curve at half-maximal effect
How it was run: as §4

[16] = Quantitative High-Throughput drug screen in 47 multiple myeloma cell lines against the NCATS MIPE library collection: NCIH929_DSMZ cell viability assay (AID 1918978); settings: NCI-H929 myeloma viability, CellTiter-Glo ATP, 48 h; viability, % of control: at 45.8 µM (top of the series); also: nearly all actives have a fitted effect of over 35% in size
How it was run: as §3

[17] = Quantitative High-Throughput drug screen in 47 multiple myeloma cell lines against the NCATS MIPE library collection: MM1S_ATCC cell viability assay (AID 1918980); also: nearly all actives have a fitted effect of over 45% in size; also: potency is read from the fitted curve at half-maximal effect
How it was run: as §3

[18] = Quantitative High-Throughput drug screen in 47 multiple myeloma cell lines against the NCATS MIPE library collection: MM1R_ATCC cell viability assay (AID 1918981); also: nearly all actives have a fitted effect of over 35% in size; also: potency is read from the fitted curve at half-maximal effect
How it was run: as §3

[19] = Quantitative High-Throughput drug screen in 47 multiple myeloma cell lines against the NCATS MIPE library collection: KMS12PE_JCRB cell viability assay (AID 1918972); settings: KMS12PE myeloma viability, CellTiter-Glo ATP, 48 h; viability: at 45.8 µM (top of the series); also: nearly all actives have a fitted effect of over 30% in size; also: potency is read from the fitted curve at half-maximal effect
How it was run: as §1

Row | Compound | Potency [1] | Potency [2] | Potency [3] | Potency [4] | Potency [5] | Potency [6] | Potency [7] | Potency [8] | Potency [9] | Potency [10] | Potency [11] | viability (% of DMSO) [1] | Potency [12] | Potency [13] | Potency [14] | Potency [15] | Potency [16] | Potency [17] | Potency [18] | Potency [19]
1 | Cn1c(CCCC(=O)O)nc2cc(N(CCCl)CCCl)ccc21 | inconclusive: 13200 nM [rising, partial curve] | inconclusive: 0.372 µM [cytotoxic, full curve, poor fit] | inconclusive: 6620 nM [rising, single point] | inconclusive: 16600 nM [cytotoxic, partial curve, poor fit] | inconclusive: 16.6 µM [cytotoxic, partial curve, poor fit] | inconclusive: 20.9 µM [cytotoxic, partial curve, poor fit] | inconclusive: 13.2 nM [cytotoxic, full curve, poor fit] | inconclusive: 23.5 µM [rising, partial curve] | active: 10500 nM | active: 3.32 µM | inconclusive: 4.2 nM [cytotoxic, full curve, poor fit] |  |  |  |  |  |  |  |  | 
2 | CNCC(O)c1ccc(O)cc1 (stereo not drawn) |  | inactive | inactive | inconclusive: 2.6 nM [rising, full curve, poor fit] |  | inconclusive: 23.5 µM [cytotoxic, single point] | inconclusive: 5.3 nM [rising, full curve, poor fit] |  | inconclusive: 1.2 nM [rising, full curve, poor fit] | inactive |  | active: 80.8% | inactive | inactive | inactive | inconclusive: 6.6 nM [rising, full curve, poor fit] | inactive |  |  | 
3 | O=P1(NCCCl)OCCCN1CCCl (stereo not drawn) | inconclusive: 8330 nM [cytotoxic, full curve, poor fit] | inconclusive: 2.96 µM [cytotoxic, full curve, poor fit] | inconclusive: 3720 nM [cytotoxic, full curve] | inconclusive: 4.7 nM [rising, full curve, poor fit] |  | inconclusive: 9.35 µM [cytotoxic, partial curve, poor fit] | inconclusive: 4690 nM [cytotoxic, full curve, poor fit] | active: 7.43 µM | inconclusive: 590 nM [rising, full curve, poor fit] | inactive | inconclusive: 23500 nM [cytotoxic, single point] |  | inconclusive: 8.33 µM [cytotoxic, partial curve, poor fit] | inconclusive: 23.5 µM [cytotoxic, partial curve] | inconclusive: 23.5 µM [cytotoxic, partial curve, poor fit] |  | inactive | inconclusive: 37.2 µM [cytotoxic, single point] | inconclusive: 37200 nM [cytotoxic, single point] | 
4 | CC(C)(C)[C@]1(O)C[C@@H]2OC(=O)C[C@@]23C(=O)O[C@@H]2OC(=O)[C@H](O)C213 (stereo partly drawn) | inconclusive: 3720 nM [rising, partial curve, poor fit] | inconclusive: 3.72 µM [cytotoxic, partial curve, poor fit] | active: 33.2 nM | inconclusive: 14.8 nM [cytotoxic, full curve, poor fit] |  |  | inconclusive: 1.2 nM [cytotoxic, full curve, poor fit] | inconclusive: 9.35 µM [cytotoxic, partial curve, poor fit] | inconclusive: 23500 nM [cytotoxic, partial curve, poor fit] | inactive |  |  | inactive |  |  | inconclusive: 833 nM [cytotoxic, full curve, poor fit] | inactive | inactive |  | inconclusive: 93.5 nM [cytotoxic, full curve, poor fit]
5 | C[C@]12COC(=O)C[C@@H]1CC[C@@H]1[C@H]2CC[C@@]2(C)[C@H]1CC[C@]2(C)O | inconclusive: 118 nM [cytotoxic, full curve, poor fit] | inconclusive: 6.62 µM [rising, partial curve, poor fit] | inactive | inactive |  | inconclusive: 9.35 µM [cytotoxic, partial curve, poor fit] | inactive | inconclusive: 0.0093 µM [cytotoxic, full curve, poor fit] | inconclusive: 2640 nM [cytotoxic, partial curve, poor fit] | inconclusive: 9.35 µM [cytotoxic, full curve, poor fit] |  |  | inconclusive: 0.0118 µM [rising, full curve, poor fit] | inconclusive: 0.0083 µM [cytotoxic, full curve, poor fit] |  |  |  | inactive |  | inactive
6 | CC(=O)Nc1ccc(OC[C@](C)(O)C(=O)Nc2ccc([N+](=O)[O-])c(C(F)(F)F)c2)cc1 | inconclusive: 4.7 nM [rising, full curve, poor fit] | inactive | inconclusive: 6.6 nM [rising, full curve, poor fit] | inconclusive: 1.2 nM [rising, full curve, poor fit] |  | inconclusive: 33.2 µM [cytotoxic, single point] | inconclusive: 33200 nM [cytotoxic, partial curve, poor fit] | inconclusive: 0.0037 µM [rising, full curve] | inconclusive: 7.4 nM [rising, full curve] | inconclusive: 0.0118 µM [rising, full curve, poor fit] | inconclusive: 1.9 nM [rising, full curve, poor fit] |  | inconclusive: 7.43 µM [cytotoxic, full curve, poor fit] | inconclusive: 2.96 µM [rising, full curve, poor fit] | inconclusive: 0.0017 µM [rising, full curve] | inactive |  | inconclusive: 23.5 µM [cytotoxic, single point] | inconclusive: 1.9 nM [rising, full curve] | 
7 | NC1CC1c1ccccc1 (stereo not drawn) | inconclusive: 16.6 nM [cytotoxic, full curve, poor fit] | inactive | inconclusive: 8.3 nM [cytotoxic, full curve, poor fit] | inconclusive: 2640 nM [cytotoxic, partial curve, poor fit] | inactive |  | inactive | inconclusive: 0.0083 µM [cytotoxic, full curve, poor fit] | inconclusive: 10500 nM [cytotoxic, partial curve, poor fit] | inactive |  |  | inactive |  | inactive |  |  | inactive | inconclusive: 1 nM | 
8 | CC=C(C)C(=O)N[C@@H](c1ccccc1)[C@@H](O)C(=O)O[C@H]1C[C@@]2(O)[C@@H](OC(=O)c3ccccc3)[C@@H]3[C@]4(OC(C)=O)CO[C@@H]4C[C@H](O)[C@@]3(C)C(=O)[C@H](OC(C)=O)C(=C1C)C2(C)C | inconclusive: 1.9 nM [cytotoxic, full curve, poor fit] | inconclusive: 0.166 µM [rising, full curve, poor fit] | inconclusive: 1.2 nM [cytotoxic, full curve] | inconclusive: 4.7 nM [rising, full curve, poor fit] |  | inactive | inactive |  | inconclusive: 14.8 nM [rising, full curve, poor fit] | inactive | inconclusive: 6.6 nM [cytotoxic, full curve, poor fit] |  | inactive |  | inactive | inactive |  | inactive | inactive | 
9 | CCCC[N+]1(C)[C@H]2CC(OC(=O)[C@H](CO)c3ccccc3)C[C@H]1[C@H]1O[C@H]12 (stereo partly drawn) |  | inactive | inactive | inactive | inactive | inactive | inconclusive: 1.2 nM [cytotoxic, full curve, poor fit] | inconclusive: 11.8 µM [rising, single point] | inconclusive: 743 nM [cytotoxic, full curve, poor fit] | inconclusive: 0.0017 µM [cytotoxic, full curve, poor fit] | inactive | inconclusive: 70.2% [cytotoxic] |  | inactive | inconclusive: 0.0019 µM [cytotoxic, full curve, poor fit] | inactive |  | inactive |  | 
10 | CCOC(=O)Nc1ccc(NCc2ccc(F)cc2)cc1N | inactive | inconclusive: 6.62 µM [cytotoxic, full curve, poor fit] | inconclusive: 118000 nM [cytotoxic, partial curve, poor fit] | inconclusive: 6.6 nM [cytotoxic, full curve, poor fit] |  | inconclusive: 18.7 µM [cytotoxic, partial curve] | inconclusive: 37200 nM [cytotoxic, single point] | inactive | inactive | inactive | inactive |  | inconclusive: 4.18 µM [cytotoxic, partial curve, poor fit] | inconclusive: 26.4 µM [cytotoxic, single point] | inconclusive: 16.6 µM [cytotoxic, partial curve, poor fit] | inactive |  |  |  | 

Limited to Potency [17] (2 entries from above):
Row | Compound | Potency [17]
4 | CC(C)(C)[C@]1(O)C[C@@H]2OC(=O)C[C@@]23C(=O)O[C@@H]2OC(=O)[C@H](O)C213 (stereo partly drawn) | inactive
5 | C[C@]12COC(=O)C[C@@H]1CC[C@@H]1[C@H]2CC[C@@]2(C)[C@H]1CC[C@]2(C)O | inactive
